The supplement of paper PMC9233669
Variants at the floor of the assay are shown more often than the library holds them.

What was measured:
[1] = test system: biotinyl-Val-oxazolone; assay: self-aminoacylation, catalytic enhancement (BVO) (fold over background); higher = more active; k-Seq, kA / k0A0; sequences stand for … in GGGAAUGGAUCCACAUCUACGAAUUC…UUCACUGCAGACUUGACGAAGCUG
Summary of the method: (§1)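 The uncatalyzed rate is the low-activity peak of a bimodal Gaussian fit, and catalytic enhancement is median kA divided by it. The kA values came from pseudo-first-order fits, with 1000 bootstraps, of per-sequence fraction reacted measured by streptavidin capture, triplicate qPCR and Illumina sequencing. Mutagenized RNA pools with a 21-nt variable region (0.43 μM) were reacted with each biotinyl-aminoacyl-oxazolone at 2–1250 μM in 50 μL HEPES/NaCl/KCl/MgCl2/CaCl2 buffer with 5% acetonitrile, pH 6.9–7.0, for 90 minutes at room temperature.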

[2] = test system: biotinyl-Trp-oxazolone; assay: self-aminoacylation, catalytic enhancement (BWO) (fold over background); higher = more active; k-Seq, kA / k0A0; sequences stand for … in GGGAAUGGAUCCACAUCUACGAAUUC…UUCACUGCAGACUUGACGAAGCUG
Summary of the method: as §1

[3] = test system: biotinyl-Ile-oxazolone; assay: self-aminoacylation, catalytic enhancement (BIO) (fold over background); higher = more active; k-Seq, kA / k0A0; sequences stand for … in GGGAAUGGAUCCACAUCUACGAAUUC…UUCACUGCAGACUUGACGAAGCUG
Summary of the method: as §1

[4] = test system: biotinyl-Met-oxazolone; assay: self-aminoacylation, catalytic enhancement (BMO) (fold over background); higher = more active; k-Seq, kA / k0A0; sequences stand for … in GGGAAUGGAUCCACAUCUACGAAUUC…UUCACUGCAGACUUGACGAAGCUG
Summary of the method: as §1

[5] = test system: biotinyl-Leu-oxazolone; assay: self-aminoacylation, catalytic enhancement (BLO) (fold over background); higher = more active; k-Seq, kA / k0A0; sequences stand for … in GGGAAUGGAUCCACAUCUACGAAUUC…UUCACUGCAGACUUGACGAAGCUG
Summary of the method: as §1

[6] = test system: biotinyl-Phe-oxazolone; assay: self-aminoacylation, catalytic enhancement (BFO) (fold over background); higher = more active; k-Seq, kA / k0A0; sequences stand for … in GGGAAUGGAUCCACAUCUACGAAUUC…UUCACUGCAGACUUGACGAAGCUG
Summary of the method: as §1

Sequence | self-aminoacylation [1] | self-aminoacylation [2] | self-aminoacylation [3] | self-aminoacylation [4] | self-aminoacylation [5] | self-aminoacylation [6]
CCAUACUUCAAACAAUCGGUC [Fam1B.1 aminoacylation ribozyme variant] | 1.19 | 30.3 | 1.3 | 1.12 | 1.91 | 
CGACUUCAAACAAUCGAUCUG [Fam1A.1 aminoacylation ribozyme variant] | 0.729 | 1.4 | 0.668 | 0.604 | 0.719 | 
CGACUUCUAACAAUCGGUCUG [Fam1A.1 aminoacylation ribozyme variant] | 0.931 | 0.591 | 0.905 | 0.936 | 0.917 | 
CUAAAUCAAACAAUCGGUCUG [Fam1A.1 aminoacylation ribozyme variant] | 0.733 | 1.53 | 0.724 | 0.731 | 0.567 | 
CUACAUCAAACAAUCGGUCUU [Fam1A.1 aminoacylation ribozyme variant] | 0.748 | 1.25 | 0.69 | 0.791 | 0.615 | 
CUACGUCAAACGAUCGGUCUG [Fam1A.1 aminoacylation ribozyme variant] | 1.76 | 0.956 | 1.49 | 1.67 | 1.64 | 
CUACGUCAAAGAAUCGGUCUG [Fam1A.1 aminoacylation ribozyme variant] | 1.52 | 0.909 | 1.49 | 1.15 | 1.83 | 
CUACUCCAAACAAUCGGUUUG [Fam1A.1 aminoacylation ribozyme variant] | 0.901 | 1.77 | 0.987 | 0.786 | 1.07 | 
CUACUCCAAACAAUCUGUCUG [Fam1A.1 aminoacylation ribozyme variant] | 0.766 | 0.506 | 0.799 | 0.578 | 0.716 | 
CUACUGCAAACAGUCGGUCUG [Fam1A.1 aminoacylation ribozyme variant] | 0.818 | 0.649 | 0.827 | 1.03 | 0.643 | 
CUACUUCAAACAAUCACUCUG [Fam1A.1 aminoacylation ribozyme variant] | 0.761 | 1.11 | 0.646 | 0.457 | 0.611 | 
CUACUUCAAACAAUCGCUCUG [Fam1A.1 aminoacylation ribozyme variant] | 0.685 | 1.43 | 0.673 | 0.574 | 0.603 | 
CUACUUCAAACAAUCGCUGUG [Fam1A.1 aminoacylation ribozyme variant] | 1.14 | 1.88 | 1.38 | 1.4 |  | 1.9
CUACUUCAAACAAUCGGAAUG [Fam1A.1 aminoacylation ribozyme variant] | 0.846 | 4.46 | 1.17 | 0.991 | 0.969 | 
CUACUUCAAACAAUCGUACUG [Fam1A.1 aminoacylation ribozyme variant] | 0.533 | 0.573 | 0.519 | 0.419 | 0.389 | 
CUACUUCAAACACUCCGUCUG [Fam1A.1 aminoacylation ribozyme variant] | 0.869 | 0.771 | 0.772 | 0.845 | 0.727 | 
CUACUUCAAACACUCGGGCUG [Fam1A.1 aminoacylation ribozyme variant] |  | 1.5 |  | 1.62 |  | 1.3
CUACUUCAAACACUCGGUCGG [Fam1A.1 aminoacylation ribozyme variant] | 1.27 | 1.17 | 1.57 | 1.64 | 1.98 | 
CUACUUCAGACAAUCGGGCUG [Fam1A.1 aminoacylation ribozyme variant] | 1.62 | 1.33 | 1.46 | 1.82 | 1.25 | 
CUACUUGAAACACUCGGUCUG [Fam1A.1 aminoacylation ribozyme variant] | 1.11 | 0.946 | 1.13 | 1.02 | 1.48 | 
CUUACCCUGGUCAUCGAGGGA [Fam2.1 aminoacylation ribozyme variant] |  | 1.58 | 1.01 | 1.33 | 1.2 | 0.844
CUUCUACAAACAAUCGGUCUG [Fam1A.1 aminoacylation ribozyme variant] | 0.831 | 0.564 | 0.694 | 0.763 | 0.623 | 
CUUCUCCUAGGUCAUCGGGUG [Fam2.2 aminoacylation ribozyme variant] | 4.48 | 6.52 | 4.42 | 6.43 | 8.84 | 
GUACUACAAACAAUCGGUCUG [Fam1A.1 aminoacylation ribozyme variant] | 1.07 |  | 1.11 | 1.11 | 0.95 | 1.76
GUUCACCUAGGUCAUCGGGAG [Fam2.2 aminoacylation ribozyme variant] | 1.7 |  | 1.39 | 1.44 | 1.74 | 1.07
UAGUUGGCUAAUAGUCGCAAG [Fam3.1 aminoacylation ribozyme variant] | 1.93 | 1.76 | 1.71 | 1.94 | 1.6 | 
UCGUUUGCUAAUAGUCGCAAG [Fam3.1 aminoacylation ribozyme variant] | 1.04 | 1.87 | 1.19 | 1.21 | 0.971 | 
UUACUUCAAACAUUCGGUCUG [Fam1A.1 aminoacylation ribozyme variant] | 1.15 | 1.01 | 1.34 | 1.61 | 1.28 | 
